No constants are given. Whether binding was seen depends on the method and setting. Binding seen in cells or lysates may run through a third protein. Some binding calls cover weakened binding; strength is not graded here.

Amino acid sequences for entries named in this document (tags omitted).
UniProt Q8CD54: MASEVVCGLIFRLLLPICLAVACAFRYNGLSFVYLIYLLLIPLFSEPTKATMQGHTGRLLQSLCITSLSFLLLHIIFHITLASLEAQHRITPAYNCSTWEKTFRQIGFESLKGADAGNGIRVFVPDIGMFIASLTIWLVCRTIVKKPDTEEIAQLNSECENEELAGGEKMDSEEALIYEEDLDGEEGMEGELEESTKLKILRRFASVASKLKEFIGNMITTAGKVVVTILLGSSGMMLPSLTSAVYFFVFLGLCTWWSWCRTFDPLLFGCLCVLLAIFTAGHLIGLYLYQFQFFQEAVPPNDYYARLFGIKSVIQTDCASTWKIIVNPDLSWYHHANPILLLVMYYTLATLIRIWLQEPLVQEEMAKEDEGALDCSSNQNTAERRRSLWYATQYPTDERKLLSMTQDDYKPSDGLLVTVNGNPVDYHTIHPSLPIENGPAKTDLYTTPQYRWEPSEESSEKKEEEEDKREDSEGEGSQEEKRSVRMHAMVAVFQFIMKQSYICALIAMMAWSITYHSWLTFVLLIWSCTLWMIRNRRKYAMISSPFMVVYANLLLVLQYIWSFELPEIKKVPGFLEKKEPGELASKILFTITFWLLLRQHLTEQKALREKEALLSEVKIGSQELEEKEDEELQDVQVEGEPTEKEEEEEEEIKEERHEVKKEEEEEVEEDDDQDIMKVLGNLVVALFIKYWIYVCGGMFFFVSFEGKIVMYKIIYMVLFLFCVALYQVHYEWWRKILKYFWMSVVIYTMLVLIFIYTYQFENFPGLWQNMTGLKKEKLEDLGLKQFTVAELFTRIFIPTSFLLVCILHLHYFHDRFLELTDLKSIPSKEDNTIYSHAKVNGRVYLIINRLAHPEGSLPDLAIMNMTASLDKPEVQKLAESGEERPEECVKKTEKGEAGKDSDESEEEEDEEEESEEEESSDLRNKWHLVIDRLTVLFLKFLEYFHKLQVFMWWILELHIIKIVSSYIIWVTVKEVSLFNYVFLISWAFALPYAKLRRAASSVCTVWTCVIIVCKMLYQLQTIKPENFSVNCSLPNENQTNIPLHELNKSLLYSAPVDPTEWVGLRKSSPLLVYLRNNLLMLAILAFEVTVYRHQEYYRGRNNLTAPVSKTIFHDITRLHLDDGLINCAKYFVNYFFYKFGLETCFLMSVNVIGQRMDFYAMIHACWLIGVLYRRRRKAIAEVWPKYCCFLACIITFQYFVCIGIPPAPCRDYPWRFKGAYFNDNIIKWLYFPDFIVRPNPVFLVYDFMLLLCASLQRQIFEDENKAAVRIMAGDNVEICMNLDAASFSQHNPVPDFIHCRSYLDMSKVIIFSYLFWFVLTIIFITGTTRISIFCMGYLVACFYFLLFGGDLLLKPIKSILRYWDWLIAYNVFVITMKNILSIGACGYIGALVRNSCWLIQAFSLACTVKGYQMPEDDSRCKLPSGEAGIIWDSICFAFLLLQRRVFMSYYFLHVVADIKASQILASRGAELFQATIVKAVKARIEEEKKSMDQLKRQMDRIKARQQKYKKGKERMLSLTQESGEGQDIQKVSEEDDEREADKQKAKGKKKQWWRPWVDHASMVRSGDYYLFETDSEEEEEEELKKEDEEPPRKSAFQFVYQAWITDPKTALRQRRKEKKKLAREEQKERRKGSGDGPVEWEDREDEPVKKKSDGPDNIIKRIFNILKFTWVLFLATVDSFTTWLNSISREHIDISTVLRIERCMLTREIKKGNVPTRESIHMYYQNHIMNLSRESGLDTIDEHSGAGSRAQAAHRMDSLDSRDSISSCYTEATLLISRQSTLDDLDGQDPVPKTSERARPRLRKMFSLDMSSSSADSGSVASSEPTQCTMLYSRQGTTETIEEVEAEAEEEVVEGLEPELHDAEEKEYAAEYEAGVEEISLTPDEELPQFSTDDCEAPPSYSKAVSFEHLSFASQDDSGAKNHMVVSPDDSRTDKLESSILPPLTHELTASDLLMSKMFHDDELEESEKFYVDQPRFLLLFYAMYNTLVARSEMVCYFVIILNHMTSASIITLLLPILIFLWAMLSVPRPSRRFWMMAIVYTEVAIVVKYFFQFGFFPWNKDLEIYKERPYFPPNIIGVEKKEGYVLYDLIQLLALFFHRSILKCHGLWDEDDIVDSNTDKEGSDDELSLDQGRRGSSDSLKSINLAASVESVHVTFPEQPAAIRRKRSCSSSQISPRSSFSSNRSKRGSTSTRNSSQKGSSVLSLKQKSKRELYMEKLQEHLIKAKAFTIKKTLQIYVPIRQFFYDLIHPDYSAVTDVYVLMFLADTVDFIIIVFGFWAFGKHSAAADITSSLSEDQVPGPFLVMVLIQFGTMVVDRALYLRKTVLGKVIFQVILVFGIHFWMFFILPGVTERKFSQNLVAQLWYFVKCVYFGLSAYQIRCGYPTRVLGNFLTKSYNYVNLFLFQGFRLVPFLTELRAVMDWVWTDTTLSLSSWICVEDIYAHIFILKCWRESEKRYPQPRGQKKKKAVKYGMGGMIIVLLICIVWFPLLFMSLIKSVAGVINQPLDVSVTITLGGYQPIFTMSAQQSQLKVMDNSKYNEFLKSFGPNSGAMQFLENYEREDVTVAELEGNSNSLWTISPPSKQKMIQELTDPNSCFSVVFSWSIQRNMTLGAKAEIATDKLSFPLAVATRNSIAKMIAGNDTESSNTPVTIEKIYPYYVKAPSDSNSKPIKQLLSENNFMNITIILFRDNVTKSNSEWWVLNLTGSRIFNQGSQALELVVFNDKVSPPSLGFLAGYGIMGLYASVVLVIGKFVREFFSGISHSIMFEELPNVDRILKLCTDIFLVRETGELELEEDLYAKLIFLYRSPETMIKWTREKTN

This test deals with T1, LPHN2/ADGRL2 (mouse (endogenous in mouse utricles)) (UniProt Q8JZZ7).
T1 sequence: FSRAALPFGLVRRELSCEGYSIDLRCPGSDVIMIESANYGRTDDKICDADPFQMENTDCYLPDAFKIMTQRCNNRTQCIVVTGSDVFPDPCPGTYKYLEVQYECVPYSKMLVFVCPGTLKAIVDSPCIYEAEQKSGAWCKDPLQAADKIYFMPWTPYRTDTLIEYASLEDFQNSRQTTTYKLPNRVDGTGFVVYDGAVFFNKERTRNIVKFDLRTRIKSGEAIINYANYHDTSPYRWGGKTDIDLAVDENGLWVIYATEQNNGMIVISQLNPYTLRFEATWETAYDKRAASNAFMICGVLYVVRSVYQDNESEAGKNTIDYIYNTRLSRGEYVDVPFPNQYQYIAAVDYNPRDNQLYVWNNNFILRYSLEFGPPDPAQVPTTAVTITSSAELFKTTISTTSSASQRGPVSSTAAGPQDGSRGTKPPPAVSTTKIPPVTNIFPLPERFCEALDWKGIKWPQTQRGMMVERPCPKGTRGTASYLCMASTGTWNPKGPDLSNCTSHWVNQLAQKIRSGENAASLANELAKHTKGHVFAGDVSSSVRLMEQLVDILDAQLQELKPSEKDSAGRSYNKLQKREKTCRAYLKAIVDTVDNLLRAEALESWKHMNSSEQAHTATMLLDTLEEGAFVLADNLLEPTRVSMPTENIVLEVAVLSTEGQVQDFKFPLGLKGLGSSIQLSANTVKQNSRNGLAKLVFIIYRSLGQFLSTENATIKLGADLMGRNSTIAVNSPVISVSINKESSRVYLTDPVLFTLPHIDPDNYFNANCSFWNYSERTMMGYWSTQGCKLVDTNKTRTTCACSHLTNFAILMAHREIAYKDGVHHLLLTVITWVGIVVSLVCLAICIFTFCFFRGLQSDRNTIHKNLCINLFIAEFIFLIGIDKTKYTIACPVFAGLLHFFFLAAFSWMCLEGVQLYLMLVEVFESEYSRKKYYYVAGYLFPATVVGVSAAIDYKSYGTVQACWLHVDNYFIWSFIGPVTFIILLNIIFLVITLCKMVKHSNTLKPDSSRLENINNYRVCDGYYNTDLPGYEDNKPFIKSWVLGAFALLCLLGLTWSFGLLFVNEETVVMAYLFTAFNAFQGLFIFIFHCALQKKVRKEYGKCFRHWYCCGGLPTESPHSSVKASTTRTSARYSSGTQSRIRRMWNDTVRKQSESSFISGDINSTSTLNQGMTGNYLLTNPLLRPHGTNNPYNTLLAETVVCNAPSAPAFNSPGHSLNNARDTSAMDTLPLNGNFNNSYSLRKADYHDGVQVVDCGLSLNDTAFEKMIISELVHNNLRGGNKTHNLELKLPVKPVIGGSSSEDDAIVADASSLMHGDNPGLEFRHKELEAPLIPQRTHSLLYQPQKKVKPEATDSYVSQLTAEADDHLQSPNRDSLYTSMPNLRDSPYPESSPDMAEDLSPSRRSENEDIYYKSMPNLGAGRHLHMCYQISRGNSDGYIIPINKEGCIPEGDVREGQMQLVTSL
The test is described as follows: co-IP; lysates of WT mouse utricles in NP40 lysis buffer with phosphatase and protease inhibitors; immunoprecipitated with LPHN2-antibody-conjugated agarose overnight at 4 °C, washed with PBS, western blot.

With PIEZO2 (from UniProt Q8CD54 1-2822), the binding entry is “no binding”.

B1: transmembrane channel-like protein 1 (TMC1) (protein, UniProt Q8R4P5 1-757)
chain: MLQIQVEEKEEDTEESSSEEEEDKLPRRESLRPKRKRTRDVINEDDPEPEPEDEETRKAREKERRRRLRRGAEEEEEIDEEELERLKALLDENRQMIATVKCKPWKMEKKIEVLKEAKKFVSENEGALGKGKGKKWFAFKMMMAKKWAKFLRDFENFKAACVPWENKIKAIESQFGSSVASYFLFLRWMYGVNMVLFVLTFSLIMLPEYLWGLPYGSLPRKTVPRAEEASAANFGVLYDFNGLAQYSVLFYGYYDNKRTIGWLNFRLPLSYFLVGIMCIGYSFLVVLKAMTKNIGDDGGGDDNTFNFSWKVFCSWDYLIGNPETADNKFNSITMNFKEAIIEERAAQVEENIHLIRFLRFLANFFVFLTLGASGYLIFWAVKRSQEFAQQDPDTLGWWEKNEMNMVMSLLGMFCPTLFDLFAELEDYHPLIALKWLLGRIFALLLGNLYVFILALMDEINNKIEEEKLVKANITLWEANMIKAYNESLSGLSGNTTGAPFFVHPADVPRGPCWETMVGQEFVRLTVSDVLTTYVTILIGDFLRACFVRFCNYCWCWDLEYGYPSYTEFDISGNVLALIFNQGMIWMGSFFAPSLPGINILRLHTSMYFQCWAVMCCNVPEARVFKASRSNNFYLGMLLLILFLSTMPVLYMIVSLPPSFDCGPFSGKNRMFEVIGETLEHDFPSWMAKILRQLSNPGLVIAVILVMVLTIYYLNATAKGQKAANLDLKKKMKQQALENKMRNKKMAAARAAAAAGGQ
Regarding B1, the binding result was “binds”.

The values are drawn from paper PMC11958651.
